# Several values for one entry are separate records, joined by “and”; a condition that tells them apart may be missing. Identical values can stand only once. In all, about 330,000 compounds went through this assay and about 230 (0.07%) were called active. Inconclusive results, whose numbers are uncertain, are shown with a selection of clear calls.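 Rule for the calls: active = more than half of a compound's replicate wells show inhibition beyond 50%, single wells judged on their own value; inconclusive = some, but no more than half, of replicates pass 50% inhibition; inactive = no replicate passes 50% inhibition.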
# Chains of the proteins cited; added tags and fusions are not shown. Residues count along the entry.
# UniProt Q9H3R0, 1-420 limits assumed: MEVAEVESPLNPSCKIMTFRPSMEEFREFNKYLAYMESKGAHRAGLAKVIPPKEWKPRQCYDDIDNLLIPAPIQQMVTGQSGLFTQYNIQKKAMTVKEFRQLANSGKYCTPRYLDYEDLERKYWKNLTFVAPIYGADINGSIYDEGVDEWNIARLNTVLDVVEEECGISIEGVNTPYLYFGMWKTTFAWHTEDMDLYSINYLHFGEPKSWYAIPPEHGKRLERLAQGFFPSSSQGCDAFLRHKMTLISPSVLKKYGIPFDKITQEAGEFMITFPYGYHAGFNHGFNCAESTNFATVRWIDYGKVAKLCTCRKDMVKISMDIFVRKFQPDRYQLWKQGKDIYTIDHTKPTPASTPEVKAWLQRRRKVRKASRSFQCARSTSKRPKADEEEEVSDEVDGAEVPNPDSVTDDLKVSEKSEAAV
# Biological target: Lysine-specific demethylase 4C (Homo sapiens) (UniProt Q9H3R0)
# Assay: inhibitors of GASC-1 histone demethylase, primary screen, biochemical, fluorescence, DELFIA europium (AID 2099);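 note: signal counts dimethyl H3K9 product captured on neutravidin plate; 0% = median of DMSO wells and 100% = 0.3 times that DMSO median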
# Settings: GST-JMJD2C(1-420) H3K9me3 demethylation, at 2.35 µM, active compounds read high
row,SMILES,inhibition
1,CCCCn1c(N)c(N(CC(C)C)C(=O)CCCc2nc3ccccc3s2)c(=O)[nH]c1=O,inconclusive: -50.6%
2,COCC(C)NS(=O)(=O)c1ccc(C(=O)NC(Cc2ccccc2)c2ccccc2)cc1 (stereo unspecified),inconclusive: -51.1%
3,NNC(=O)c1cccc(COc2ccc3c(c2)CCC3)c1,inconclusive: -50.9%
4,O=C(CCC(=O)OCC(=O)c1ccc(Cl)cc1Cl)Nc1cccc2cccnc12,inconclusive: -62.2%
5,CCO[C@@H]1OC(C(=O)N2CCOCC2)=C[C@H](c2ccccc2)[C@H]1CCCO,inconclusive: -89.5%
6,CCCCN(C)C(=O)CCC(=O)Nc1ccc2nc(N3CCN(C)CC3)cc(C)c2c1,inactive: 16.4%
7,CCc1nnc(N/N=C/c2cc(Br)c(O)cc2O)n1N,active: 58.2%
8,COc1ccc(OC)c(N(CC(=O)Nc2cccnc2)S(=O)(=O)c2ccccc2)c1,inactive: -29.8%
9,CCN(c1ccccc1)S(=O)(=O)c1ccc(Cl)c(NC(=O)c2ccc(=O)[nH]n2)c1,inactive: 4.35%
10,COc1cc(C(=O)NCC2CCCO2)cc(OC)c1OC (stereo unspecified),inconclusive: -84.5%
11,Cc1cccc(NC(=O)c2c(F)c(F)c(F)c(F)c2F)c1,inconclusive: -173%
12,COc1ccc(-c2nn(C)c(=O)[nH]2)cc1,inconclusive: -36.6%
13,CCN(CC)S(=O)(=O)c1ccc(-c2nnc(SCC(=O)Nc3nc(C)cs3)o2)cc1,inconclusive: -44.9%
14,O=C(Cn1cnc2c(nnn2-c2ccc(F)cc2)c1=O)N1CCCC1,inconclusive: -153%
15,COC(C[C@H]1O[C@@H]1[C@@H](O)[C@H](C)OCc1ccccc1)OC,inconclusive: -143%
16,Cc1ccc(C)c(OCc2nc(-c3cccnc3)no2)c1,inconclusive: -164%
17,O=c1[nH]c(N/N=C/c2ccccc2)nc2ccccc12,inactive: -10%
18,CCOC(=O)c1cnc(SC2CCc3ccccc3C2=O)nc1N (stereo unspecified),inconclusive: -163%
19,COc1cccc(NC(=O)c2ccc(NC(=O)C(C)(C)C)cc2)c1,inactive: -5.23%
20,Cc1ccc(NC(=O)c2cc3ccccc3oc2=N)cc1,inactive: 13.7%
21,Cc1ccc(NC(=O)CN(C)C(=O)COc2cccc3cccnc23)cc1,inactive: 7.25%
22,CCN1C(=O)C2(C(C#N)=C(N)Oc3c2c(C)nn3-c2ccccc2)c2ccccc21 (stereo unspecified),inconclusive: -120%

row,SMILES,inhibition
1,COc1ccc(C(=O)Nc2ccc(Cl)cc2C(=O)NCCO)cc1,inconclusive: -41%
2,CC(Oc1ccc2c(-c3ccccc3)cc(=O)oc2c1)C(=O)N1CCC[C@@H]1C(N)=O (stereo partly specified),inconclusive: -323%
3,COc1cc(OC)cc(C(=O)Nc2ccc(-n3cnnn3)c(C)c2)c1,active: 88.8%
4,O=[N+]([O-])c1ccc(S(=O)(=O)N2CCN=C2SCc2ccc(F)cc2)cc1,inconclusive: -58.4%
5,O=C(CCC1CCCN(Cc2ccc3c(c2)OCCO3)C1)NCc1ccccc1F (stereo unspecified),inactive: -3.03%
6,Cc1cccc(OCCn2c(NC(=O)c3ccco3)nc3ccccc32)c1,inactive: 2.21%
7,CCn1c(=O)cc(SCC(=O)NCCCN2CCN(c3ccc(F)cc3)CC2)c2ccccc21,inconclusive: -71.7%
8,CC1C(=O)N2CCCc3cc(NC(=O)C(=O)NCCCc4ccccc4)cc1c32 (stereo unspecified),inconclusive: -132%
9,Cc1ccc(C(=O)Nc2cccc([N+](=O)[O-])c2)cc1S(=O)(=O)Nc1ccc(C(=O)O)cc1,inactive: -4.13%
10,COc1cc2[nH]c(=S)n(NC(=O)c3ccccc3)c(=O)c2cc1OC,inconclusive: -50.3%
11,COc1ccc(C(=O)Nc2ccc(C(=O)NCCc3ccc(OC)c(OC)c3)cc2)cc1,inactive: -2.1%
12,C=CCn1c(O)c(N=Nc2ccccc2C)c2ccccc21,active: 97.1%
13,CCOC(=O)N1CCN(C(c2ccccc2)c2sc3nc(C)nn3c2O)CC1 (stereo unspecified),inconclusive: -64.2%
14,Cc1cc(C)cc(N(C(=O)c2csnn2)C(C(=O)NC2CCCC2)c2cccnc2)c1 (stereo unspecified),inactive: 3.11%
15,COC(=O)C(O)(CC(=O)Nc1cccc(SC)c1)C(F)(F)F (stereo unspecified),inconclusive: -141%
16,O=C(NCCCN1CCCC1=O)c1cc(=O)c2ccccc2o1,inactive: 0.716%
17,CC(C)CN(C(=O)C1CCCCC1)C1CCS(=O)(=O)C1 (stereo unspecified),inactive: -8.43%
18,C=CCNc1cc(=O)n(Cc2ccccc2)c(=O)[nH]1,inconclusive: -57.1%
19,Clc1ccsc1-c1ccc2ccccc2n1,inconclusive: -255%
20,COc1ccc(CN2C(=O)Cc3c2nc(N)c2c(N)nc(N4CCOCC4)c(C#N)c32)cc1,inconclusive: -57%
21,CCN1C(=O)c2cccc3c(S(=O)(=O)Nc4ccncc4)ccc1c23,inconclusive: -53.2%
22,Clc1ccc(N=c2ssnc2Cl)nc1,active: 53.9%

row,SMILES,inhibition
1,COc1cc(C(=O)NCC(c2cccs2)N2CCOCC2)cc(OC)c1OC (stereo unspecified),inconclusive: -85.2%
2,Cc1ccc(-n2nnc3c(=O)n(CC(=O)N4CCCC4)cnc32)cc1,inactive: -3.62%
3,COC(C[C@@H](O)C[C@H](O)COCc1ccccc1)OC,inconclusive: -261%
4,CCN(CC)c1nc(=S)nc(NC(C)(C)C)[nH]1,inconclusive: -81.4%
5,Clc1ccc(C#Cc2cccnc2)cc1,inconclusive: -409%
6,Cc1c(C(c2ccccc2Br)c2c(C)n(C)n(-c3ccccc3)c2=O)c(=O)n(-c2ccccc2)n1C,inactive: -21.7%
7,Cc1nccn1CCOc1ccccc1Cl,inconclusive: -101%
8,COC(=O)c1ccccc1NC(=O)c1cn(-c2ccc(C)c(C)c2)c(=O)c2ccccc12,inconclusive: -56%
9,CC1(C)CC(=O)C(C2=NC(C)(C)Cc3ccccc32)=C(O)C1,inconclusive: -57.1%
10,CO/N=C/NC(=O)c1c(OC)ccnc1Oc1ccccc1,inconclusive: -135%
11,Nc1ccccc1Sc1nc2ccccc2[nH]1,inactive: 9.56%
12,O=C(NCCS(=O)(=O)N1CCCC1)c1ccccc1,inconclusive: -105%
13,CCN1C(=O)C(=Cc2cccc(OC)c2Oc2ccc([N+](=O)[O-])cc2[N+](=O)[O-])SC1=S,inactive: 4.98%
14,COc1ccc(Cl)cc1NC(=O)CN(C)C(=O)CN1C(=O)NC2(CCCC2)C1=O,inconclusive: -144%
15,Cc1ccccc1NC(=O)CSc1nc(COc2ccccc2)nc2ccccc12,inconclusive: -69.4%
16,OCc1csc(=Nc2ccccc2)n1-c1ccccc1,active: 57.3%
17,Cc1sc2nc(CN3CCCC3)nc(NCc3ccncc3)c2c1C,inactive: -4.99%
18,Cc1ncoc1C(=O)NCc1ccccc1Cl,inconclusive: -262%
19,O=C1CC(=O)N(Cc2ccco2)C(=O)N1,active: 52.4%
20,Cc1cc(NC(=O)C(=O)NCc2cccc(Cl)c2)no1,inactive: 1.09%
21,Cc1ccc(CS(=O)Cc2ccc(C(=O)N3CCN(c4ccc(F)cc4)CC3)o2)cc1 (stereo unspecified),inconclusive: -138%
22,COc1ccc(NC(=O)c2cc3nc(-c4ccccc4)cc(C)n3n2)cc1OC,inconclusive: -58.4%

row,SMILES,inhibition
1,COc1ccc(C2C3=C(CC(C)(C)CC3=O)Oc3ncn(CCCn4ccnc4)c(=N)c32)cc1 (stereo unspecified),inactive: 6.52% and inactive: 8.87%
2,NC(=O)NC(=O)COC(=O)c1ccc(Cl)c(S(=O)(=O)N(Cc2ccccc2)c2ccc(Cl)cc2)c1,inactive: -3.41%
3,CCOC(=O)NC1(C(F)(F)F)NC(=O)N(c2cccc(C(F)(F)F)c2)C1=O (stereo unspecified),inconclusive: -42.1%
4,CC1Cc2ccccc2N1C(=O)CSc1nc2c(c(=O)n(C)c(=O)n2C)n1Cc1ccc(F)cc1 (stereo unspecified),inactive: -1.89%
5,CCCC(C)NC(=O)CSc1nc(-c2ccccc2)cn1N (stereo unspecified),inconclusive: -51.3%
6,O=C(c1ccc(OC2CCN(CCc3ccccc3)CC2)cc1)N1CCC(CO)CC1,inconclusive: -81.6%
7,Cc1cc2nc3n(c2cc1C)CC1CC(C(=O)NCc2cccc(C(F)(F)F)c2)N(C)C31 (stereo unspecified),inconclusive: -57.3%
8,C[C@H](NC(=O)c1nc[nH]c1C(=O)N[C@@H](C)C(=O)OC(C)(C)C)C(=O)OCc1ccccc1,inactive: -4.89%
9,C[C@@H]1O[C@@H](OC[C@H]2O[C@@H](Oc3cc(O)c4c(=O)cc(-c5ccc(O)c(O)c5)oc4c3)[C@H](O)[C@@H](O)[C@@H]2O)[C@H](O)[C@H](O)[C@H]1O,active: 99.6%
10,CCn1c(SCC(=O)Nc2nc(C)cs2)nnc1-c1ccncc1,active: 54.3%
11,N#Cc1ccc(/C=C2\CCCCn3c2nc2cc(C(=O)O)ccc2c3=O)cc1,inconclusive: -57.5%
12,COc1ccc(CC(=O)Oc2ccccc2Cl)cc1S(=O)(=O)N1CCOCC1,inconclusive: -99.9%
13,CCOC(=O)c1ccc(N2C(=O)c3n[nH]c(-c4ccco4)c3C2c2cccc([N+](=O)[O-])c2)cc1 (stereo unspecified),inconclusive: -139%
14,Cc1cccc(C)c1NC(=O)CN(C)S(=O)(=O)c1ccc(-c2ccc(=O)[nH]n2)s1,inconclusive: -135%
15,CCC(C)(C(=O)NC1CCCC1)N(C)C(=O)c1ccccn1 (stereo unspecified),inconclusive: -59%
16,Cc1cc(C)n2c(SCC(=O)N(CC(C)C)c3c(N)n(CC(C)C)c(=O)[nH]c3=O)nnc2n1,inconclusive: -63.4%
17,CN(C(=O)C1CCCCC1)C1(C)CCS(=O)(=O)C1 (stereo unspecified),inconclusive: -59.2%
18,CCCc1cc(=O)oc2cc(OCC(=O)NCCc3c[nH]c4ccccc34)ccc12,inconclusive: -369%
19,O=c1c(C=NCCCn2ccnc2)c(-c2ccccc2)[nH]n1-c1nc2ccccc2s1,inconclusive: -182%
20,O=C(Nc1cccc(O)c1)c1cc2nc(-c3ccccc3)cc(-c3ccccc3)n2n1,inactive: -7.37%
